Values of other authors, collected in publication PMC7226106, “Population Pharmacokinetics/Pharmacodynamics of Dabrafenib Plus Trametinib in Patients with BRAF-Mutated Metastatic Melanoma” (Cancers, 2020).

System: BRAF-mutated MM patients
Conditions: cited from earlier work

| Compound | plasma trough threshold predicting the occurrence of DLT | trough plasma concentration associated with a better clinical efficacy (phase 2 trial, TRA monotherapy vs. CombiDT, not confirmed in phase 3) |
| --- | --- | --- |
| CC(C)(C)c1nc(-c2cccc(NS(=O)(=O)c3c(F)cccc3F)c2F)c(-c2ccnc(N)n2)s1 [DAB, Dabrafenib] | 48 ng/mL |  |
| CC(=O)Nc1cccc(-n2c(=O)n(C3CC3)c(=O)c3c(Nc4ccc(I)cc4F)n(C)c(=O)c(C)c32)c1 [TRA, trametinib] |  | above 10.6 ng/mL |
